Some of these results come from one statement about several compounds together.
Tested on: NonJK
Experiment: In vitro conversion into 1 by S. lividans (pBS2048)-CFE (NonLJK-containing CFE)
Assay type: biochemical, Streptomyces griseus
Conditions: 6-CoA 60 μM, within 1 h

## (±)-nonactyl CoA [6-CoA]
  conversion into 1 by S. lividans (pBS2048)-CFE: ≥ 50%

From US7416870B2, “Methods of directing C-O bond formation utilizing a type II polyketide synthase system” (Wisconsin Alumni Research Foundation, priority 2002, dated 2008)
